Measured values: patent US20090074762A1
Results are given in words; binding and its absence hold for the method and conditions named. Some binding calls cover weakened binding; strength is not graded here.

T1: human TweakR (human) (UniProt Q9NP84)
T1 sequence: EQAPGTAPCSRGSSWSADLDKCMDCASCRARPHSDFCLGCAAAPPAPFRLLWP

T2: human TweakR (R56P) (human) (UniProt Q9NP84)
T2 sequence: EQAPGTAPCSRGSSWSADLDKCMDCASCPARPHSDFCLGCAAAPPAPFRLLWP

T3: mouse TweakR (mouse) (UniProt Q9CR75)
T3 sequence (looked up): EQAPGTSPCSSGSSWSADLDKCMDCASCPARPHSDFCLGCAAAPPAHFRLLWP


Legend:
human TweakR (human) = molecular target: T1, human TweakR (human); assay: binding assay read as OD650, single bar per antibody and target; format and antibody concentration not given
[1] = molecular target: T2, human TweakR (R56P) (human); assay: as above
mouse TweakR (mouse) [2] = molecular target: T3, mouse TweakR (mouse); assay: as above
[3] = molecular target: T2, human TweakR (R56P) (human); assay: binding assay read as OD650; format and antibody concentration not given
mouse TweakR (mouse) [4] = molecular target: T3, mouse TweakR (mouse); assay: as above

Row | binding (human TweakR (human)) | binding [1] | binding (mouse TweakR (mouse) [2]) | binding [3] | binding (mouse TweakR (mouse) [4]) | Binder
1 | binds | binds | binds |  |  | murine anti-TweakR antibody ITEM-1 (antibody, V domains shown) VH: EVKLEESGGGLVQPGGSMKLSCVASGFSFSNYWMNWVRQSPEKGLEWVAEIRLKSNNYATHYAESVKGRFTISRHDSKSSVYLQMNNLRAEDTGIYYCTRAYADYFDYWGQGTTLTVSS VL: DIVLTQSPASLVVSLGQRATISCRASQSVSTSTYSYMHWYQQKPGQPPKILIKYASNLESGVPARFSGSGSGTDFTLNIHPVEEEDTATYYCQHSWEIPYTFGGGTKLEIKR
2 | binds | binds | binds |  |  | murine anti-TweakR antibody ITEM-3 (antibody, V domains shown) VH: EVKLEESGGGLVQPGGSMKLSCVVSGLTFSRYWMSWVRQSPEKGLEWVAEIRVKSDNYATTHYAESVKGKFTVSRDDSKSRLYLQMSSLRPEDTGIYYCIGYYADAMDYWGQGTSVTVSS VL: DIVLTQSPASLVVSLGQRATISCRASQSVSTSSYSYMHWYQQKPGQPPKLLIKYASKLDSGVPARFSGSGSGTDFTLNIHPVEEEDTATYYCQHSWEIPWTFGGGTKMEIKR
3 |  |  |  | no binding | no binding | murine anti-TweakR antibody 19.2.1 (antibody, mouse IgG2a, V domains shown) VH: EVKLEESGGGLVQPGGSMKLSCVASGFTFSSYWMSWVRQSPEKGLEWVAEIRLKSDNYATHYAESVKGKFTISRDDSKSRLYLQMNSLRAEDTGIYYCTGYYADAMDYWGQGTSVTVSS VL: DIVLTQSPASLAVSLGQRATISCRASQSVSTSSYSYMHWYQQKPGQPPKLLIKYASNLESGVPARFSGSGSGTDFTLNIHPVEEEDTATYYCQHSWEIPYTFGGGTKLEIK
